Measurements taken from article PMC9746826.
Results are given in words; binding and its absence hold for the method and conditions named. Binding seen in cells or lysates may run through a third protein. Some binding calls cover weakened binding; strength is not graded here.

By UniProt entry, the sequences of proteins in these tests, tags left out.
UniProt O88444: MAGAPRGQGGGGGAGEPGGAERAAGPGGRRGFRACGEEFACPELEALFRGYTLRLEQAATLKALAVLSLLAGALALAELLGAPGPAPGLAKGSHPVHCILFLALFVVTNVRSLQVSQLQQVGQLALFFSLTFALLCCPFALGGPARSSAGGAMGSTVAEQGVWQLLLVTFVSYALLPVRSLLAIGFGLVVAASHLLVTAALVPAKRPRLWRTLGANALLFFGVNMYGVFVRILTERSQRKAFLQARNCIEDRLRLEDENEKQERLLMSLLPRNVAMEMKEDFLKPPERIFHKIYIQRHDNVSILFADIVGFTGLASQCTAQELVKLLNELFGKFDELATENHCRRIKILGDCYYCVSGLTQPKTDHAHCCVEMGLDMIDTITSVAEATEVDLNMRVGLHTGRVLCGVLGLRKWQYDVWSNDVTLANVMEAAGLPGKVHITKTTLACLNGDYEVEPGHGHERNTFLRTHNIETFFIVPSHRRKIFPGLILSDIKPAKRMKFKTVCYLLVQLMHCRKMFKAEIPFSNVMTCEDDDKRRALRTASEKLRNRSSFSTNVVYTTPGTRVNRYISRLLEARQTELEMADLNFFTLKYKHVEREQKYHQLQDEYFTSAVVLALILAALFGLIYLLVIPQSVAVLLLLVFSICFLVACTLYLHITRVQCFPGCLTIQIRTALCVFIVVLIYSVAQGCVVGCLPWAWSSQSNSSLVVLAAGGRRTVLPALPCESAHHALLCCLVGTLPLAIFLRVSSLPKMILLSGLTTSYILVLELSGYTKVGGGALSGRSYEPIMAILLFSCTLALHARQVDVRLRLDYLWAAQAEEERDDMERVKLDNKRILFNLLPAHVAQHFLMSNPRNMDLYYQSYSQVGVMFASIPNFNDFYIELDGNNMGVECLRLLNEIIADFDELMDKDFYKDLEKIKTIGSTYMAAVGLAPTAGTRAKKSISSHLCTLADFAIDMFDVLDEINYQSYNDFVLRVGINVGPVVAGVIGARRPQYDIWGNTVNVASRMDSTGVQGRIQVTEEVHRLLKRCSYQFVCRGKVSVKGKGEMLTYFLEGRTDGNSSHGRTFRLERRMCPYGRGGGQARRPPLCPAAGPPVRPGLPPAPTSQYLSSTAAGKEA
UniProt P18762: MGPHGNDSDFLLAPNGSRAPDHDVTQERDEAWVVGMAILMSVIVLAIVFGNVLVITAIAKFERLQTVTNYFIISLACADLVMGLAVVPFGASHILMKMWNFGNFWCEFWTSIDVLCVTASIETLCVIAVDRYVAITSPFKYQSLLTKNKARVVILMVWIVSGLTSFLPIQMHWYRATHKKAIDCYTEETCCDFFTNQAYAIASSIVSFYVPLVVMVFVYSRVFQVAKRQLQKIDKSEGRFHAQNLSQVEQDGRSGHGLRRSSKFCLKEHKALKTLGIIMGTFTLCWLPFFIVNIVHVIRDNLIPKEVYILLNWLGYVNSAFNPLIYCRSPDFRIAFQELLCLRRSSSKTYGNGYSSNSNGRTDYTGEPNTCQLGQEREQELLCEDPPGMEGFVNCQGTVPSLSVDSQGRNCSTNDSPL
UniProt P34971: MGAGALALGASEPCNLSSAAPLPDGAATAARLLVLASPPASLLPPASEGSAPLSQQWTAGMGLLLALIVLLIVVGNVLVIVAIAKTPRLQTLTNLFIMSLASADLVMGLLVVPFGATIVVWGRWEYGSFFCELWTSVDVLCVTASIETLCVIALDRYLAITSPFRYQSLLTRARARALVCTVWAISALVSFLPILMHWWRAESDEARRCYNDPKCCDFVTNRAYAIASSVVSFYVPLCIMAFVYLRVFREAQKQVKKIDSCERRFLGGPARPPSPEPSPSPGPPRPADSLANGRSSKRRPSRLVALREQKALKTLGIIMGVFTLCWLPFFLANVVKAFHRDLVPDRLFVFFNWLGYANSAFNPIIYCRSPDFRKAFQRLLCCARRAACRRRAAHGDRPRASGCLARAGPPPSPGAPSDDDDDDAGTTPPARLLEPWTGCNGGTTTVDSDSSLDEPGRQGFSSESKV
UniProt Q01815: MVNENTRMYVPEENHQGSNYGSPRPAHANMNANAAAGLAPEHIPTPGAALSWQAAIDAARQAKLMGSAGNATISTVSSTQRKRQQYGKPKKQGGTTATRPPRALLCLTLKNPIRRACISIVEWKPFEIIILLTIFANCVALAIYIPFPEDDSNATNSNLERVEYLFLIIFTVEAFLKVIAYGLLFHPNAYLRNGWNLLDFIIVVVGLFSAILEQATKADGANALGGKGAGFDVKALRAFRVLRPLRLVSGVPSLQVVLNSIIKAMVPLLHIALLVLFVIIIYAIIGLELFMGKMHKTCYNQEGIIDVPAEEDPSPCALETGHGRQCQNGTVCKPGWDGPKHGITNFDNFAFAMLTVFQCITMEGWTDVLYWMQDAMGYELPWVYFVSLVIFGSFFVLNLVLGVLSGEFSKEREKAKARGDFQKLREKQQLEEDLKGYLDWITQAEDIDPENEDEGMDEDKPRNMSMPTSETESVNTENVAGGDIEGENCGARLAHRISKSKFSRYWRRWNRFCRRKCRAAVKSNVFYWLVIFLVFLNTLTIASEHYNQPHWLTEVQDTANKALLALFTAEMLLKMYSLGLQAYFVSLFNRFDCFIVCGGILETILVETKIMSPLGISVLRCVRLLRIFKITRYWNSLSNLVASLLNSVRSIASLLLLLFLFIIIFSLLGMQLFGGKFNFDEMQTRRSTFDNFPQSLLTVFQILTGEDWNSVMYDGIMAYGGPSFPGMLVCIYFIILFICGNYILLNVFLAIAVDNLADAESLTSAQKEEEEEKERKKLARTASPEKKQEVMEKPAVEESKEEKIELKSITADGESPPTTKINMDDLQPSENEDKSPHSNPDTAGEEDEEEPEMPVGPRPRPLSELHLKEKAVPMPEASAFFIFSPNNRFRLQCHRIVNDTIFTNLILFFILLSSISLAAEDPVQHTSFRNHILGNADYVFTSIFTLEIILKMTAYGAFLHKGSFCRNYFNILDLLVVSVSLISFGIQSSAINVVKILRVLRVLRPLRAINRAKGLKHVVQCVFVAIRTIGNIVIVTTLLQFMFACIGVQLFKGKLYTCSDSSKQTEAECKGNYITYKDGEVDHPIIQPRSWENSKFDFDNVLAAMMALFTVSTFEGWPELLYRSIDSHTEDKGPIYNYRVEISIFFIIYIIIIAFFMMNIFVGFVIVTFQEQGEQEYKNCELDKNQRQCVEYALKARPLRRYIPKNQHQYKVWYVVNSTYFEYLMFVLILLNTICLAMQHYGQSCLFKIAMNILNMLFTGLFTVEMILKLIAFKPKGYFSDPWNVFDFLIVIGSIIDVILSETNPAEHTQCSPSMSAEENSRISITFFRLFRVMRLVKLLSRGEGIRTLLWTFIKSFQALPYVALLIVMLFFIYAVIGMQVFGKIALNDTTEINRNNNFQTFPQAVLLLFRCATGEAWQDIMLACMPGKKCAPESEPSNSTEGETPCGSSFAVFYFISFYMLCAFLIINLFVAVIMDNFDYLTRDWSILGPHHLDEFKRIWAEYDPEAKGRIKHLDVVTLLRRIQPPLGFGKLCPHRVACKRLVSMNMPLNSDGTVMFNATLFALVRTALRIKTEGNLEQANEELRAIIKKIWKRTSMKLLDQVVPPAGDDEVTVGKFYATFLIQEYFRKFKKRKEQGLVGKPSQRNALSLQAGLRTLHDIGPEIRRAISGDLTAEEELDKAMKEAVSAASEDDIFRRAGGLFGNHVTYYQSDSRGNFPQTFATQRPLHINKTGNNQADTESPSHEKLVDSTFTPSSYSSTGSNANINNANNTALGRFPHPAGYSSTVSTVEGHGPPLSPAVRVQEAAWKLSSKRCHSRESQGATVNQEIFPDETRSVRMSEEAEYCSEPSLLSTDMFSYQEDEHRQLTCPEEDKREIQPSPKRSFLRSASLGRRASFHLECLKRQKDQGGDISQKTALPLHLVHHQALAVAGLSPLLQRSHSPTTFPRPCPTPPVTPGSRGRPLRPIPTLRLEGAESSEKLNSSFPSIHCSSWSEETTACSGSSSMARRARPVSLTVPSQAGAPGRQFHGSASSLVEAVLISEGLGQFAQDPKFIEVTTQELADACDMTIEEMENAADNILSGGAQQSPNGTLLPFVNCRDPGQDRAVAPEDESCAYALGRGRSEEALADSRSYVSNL

B1: Caveolin-3 (protein, UniProt P51637 1-151)
chain: MMTEEHTDLEARIIKDIHCKEIDLVNRDPKNINEDIVKVDFEDVIAEPEGTYSFDGVWKVSFTTFTVSKYWCYRLLSTLLGVPLALLWGFLFACISFCHIWAVVPCIKSYLIEIQCISHIYSLCIRTFCNPLFAALGQVCSNIKVVLRREG
B2: hyperpolarization-activated cyclic nucleotide-gated 4 (HCN4) channel (protein, UniProt O70507 1-1201)
chain: MDKLPPSMRKRLYSLPQQVGAKAWIMDEEEDGEEEGAGGRQDPSRRSIRLRPLPSPSPSVAAGCSESRGAALGATESEGPGRSAGKSSTNGDCRRFRGSLASLGSRGGGSGGAGGGSSLGHLHDSAEERRLIAAEGDASPGEDRTPPGLATEPERPATAAQPAASPPPQQPPQPASASCEQPSADTAIKVEGGAAASDQILPEAEVRLGQSGFMQRQFGAMLQPGVNKFSLRMFGSQKAVEREQERVKSAGFWIIHPYSDFRFYWDLTMLLLMVGNLIIIPVGITFFKDENTTPWIVFNVVSDTFFLIDLVLNFRTGIVVEDNTEIILDPQRIKMKYLKSWFVVDFISSIPVDYIFLIVETRIDSEVYKTARALRIVRFTKILSLLRLLRLSRLIRYIHQWEEIFHMTYDLASAVVRIVNLIGMMLLLCHWDGCLQFLVPMLQDFPHDCWVSINGMVNNSWGKQYSYALFKAMSHMLCIGYGRQAPVGMSDVWLTMLSMIVGATCYAMFIGHATALIQSLDSSRRQYQEKYKQVEQYMSFHKLPPDTRQRIHDYYEHRYQGKMFDEESILGELSEPLREEIINFNCRKLVASMPLFANADPNFVTSMLTKLRFEVFQPGDYIIREGTIGKKMYFIQHGVVSVLTKGNKETKLADGSYFGEICLLTRGRRTASVRADTYCRLYSLSVDNFNEVLEEYPMMRRAFETVALDRLDRIGKKNSILLHKVQHDLNSGVFNYQENEIIQQIVRHDREMAHCAHRVQAAASATPTPTPVIWTPLIQAPLQAAAATTSVAIALTHHPRLPAAIFRPPPGPGLGNLGAGQTPRHPRRLQSLIPSALGSASPASSPSQVDTPSSSSFHIQQLAGFSAPPGLSPLLPSSSSSPPPGACGSPPAPTPSTSTAAAASTTGFGHFHKALGGSLSSSDSPLLTPLQPGARSPQAAQPPPPLPGARGGLGLLEHFLPPPPSSRSPSSSPGQLGQPPGELSLGLAAGPSSTPETPPRPERPSFMAGASGGASPVAFTPRGGLSPPGHSPGPPRTFPSAPPRASGSHGSLLLPPASSPPPPQVPQRRGTPPLTPGRLTQDLKLISASQPALPQDGAQTLRRASPHSSGESVAAFSLYPRAGGGSGSSGGLGPPGRPYGAIPGQHVTLPRKTSSGSLPPPLSLFGARAASSGGPPLTTAAPQREPGARSEPVRSKLPSNL

What follows are molecules tested against Adenylyl cyclase isoform 1 (mouse (endogenous in SAN cells)) (UniProt O88444) (assay: proximity ligation; Duolink In Situ PLA kit on isolated mouse SAN cells; puncta per unit area against negative controls where only 1 antibody was used; shows whether the 2 proteins are ≤ 40 nm apart).

binding, binds:
β2-adrenergic receptor (from UniProt P18762 1-418)
β1-adrenergic receptor (from UniProt P34971 1-466)
voltage-gated Ca2+ channel (Cav1.2) (from UniProt Q01815 1-2139)
B1
B2
